Results on 5 molecules are retold here after patent US20210363262A1 (AIMED BIO, published 2021).

By UniProt entry, the sequences of proteins in these tests, tags left out. Residues count along the entry.
UniProt P08581, residues 25-932: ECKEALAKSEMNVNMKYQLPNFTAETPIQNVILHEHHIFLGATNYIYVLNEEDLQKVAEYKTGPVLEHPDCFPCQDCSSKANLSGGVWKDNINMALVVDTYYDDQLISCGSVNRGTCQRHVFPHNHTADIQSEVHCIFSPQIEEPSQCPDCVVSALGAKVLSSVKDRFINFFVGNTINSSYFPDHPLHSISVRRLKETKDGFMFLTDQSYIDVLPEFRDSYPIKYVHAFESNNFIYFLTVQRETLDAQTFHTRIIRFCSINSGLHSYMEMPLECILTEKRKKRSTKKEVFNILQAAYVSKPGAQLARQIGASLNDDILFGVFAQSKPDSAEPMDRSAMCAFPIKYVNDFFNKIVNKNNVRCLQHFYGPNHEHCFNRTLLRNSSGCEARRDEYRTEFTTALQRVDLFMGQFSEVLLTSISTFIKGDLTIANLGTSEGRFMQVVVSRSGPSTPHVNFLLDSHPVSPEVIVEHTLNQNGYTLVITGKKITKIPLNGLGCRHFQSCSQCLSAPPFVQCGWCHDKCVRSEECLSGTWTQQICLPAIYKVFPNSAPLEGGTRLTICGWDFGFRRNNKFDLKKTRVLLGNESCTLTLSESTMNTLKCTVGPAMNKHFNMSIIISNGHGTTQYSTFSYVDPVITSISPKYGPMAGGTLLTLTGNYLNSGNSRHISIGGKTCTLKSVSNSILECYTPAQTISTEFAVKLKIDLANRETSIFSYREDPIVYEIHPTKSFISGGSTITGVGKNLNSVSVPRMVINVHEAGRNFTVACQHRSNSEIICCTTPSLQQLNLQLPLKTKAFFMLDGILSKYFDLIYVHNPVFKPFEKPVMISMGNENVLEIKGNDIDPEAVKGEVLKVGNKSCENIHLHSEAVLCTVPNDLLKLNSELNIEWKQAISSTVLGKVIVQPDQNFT

Positions count from the first letter of the chain named. No constants are given. Whether binding was seen depends on the method and setting. Some entries that bind do so weakly or less than the wild type.

Assay [1] concerns the target Recombinant human c-Met (Sino biological) (human) (UniProt P08581). The assay is described as follows: ELISA, recombinant human c-Met coated at 50 ng/well, antibody titrated from 200 nM, anti-human Fab-HRP (parent as reference).
The target is the same in assay [2]. The assay can be described thus: ELISA, recombinant human c-Met coated at 50 ng/well, antibody titrated from 200 nM, anti-human Fab-HRP. (In an ELISA, binding on a coated surface is turned into a signal by an enzyme label.)

B1: 1F12 (parent antibody), full-length human IgG1 (antibody, V domains shown)
VH: EVQLLESGGGLVQPGGSLRLSCAASGFTFSNYAMSWVRQAPGKGLEWVSGISYSGGSTYYADSVKGRFTISRDNSKNTLYLQMNSLRAEDTAVYYCAKASRSCQRPACSYANGMDVWGQGTLVTVSS
VL: QSVLTQPPSASGTPGQRVTISCTGSSSNIGNNYVTWYQQLPGTAPKLLIYYNNHRPSGVPDRFSGSKSGTSASLAISGLQSEDEADYYCGSWDYSLSAYVFGGGTKLTVL
Regarding B1, the binding result in assay [1] is on record as “binds”.

B2: 1F12_H6L5, full-length human IgG1 (antibody, V domains shown)
VH: B1 VH with S109H
VL: B1 VL with S97R
B2: in assay [2], the binding entry is on record as “binds”.

B3: 1F12_H2L6, full-length human IgG1 (antibody, V domains shown)
VH: B1 VH with S54D
VL: B1 VL with Y99D
As for B3, in assay [2], the binding entry is recorded as “binds”.

B4: 1F12_H3L5, full-length human IgG1 (antibody, V domains shown)
VH: B1 VH with T58K
VL: B1 VL with S97R
For B4, the binding entry in assay [2] is reported as “binds”.

B5: 1F12_H2L3, full-length human IgG1 (antibody, V domains shown)
VH: B1 VH with S54D
VL: B1 VL with Y51E
Regarding B5, the binding result in assay [2] was “binds”.
